These are yes or no findings as the source states them, for the method shown. For some assays here: Binding calls can cover weak binding; strength is not graded here. For some assays here: Where a sequence is shown, tags or fusion partners need not be part of it. For some assays here: Binding seen in cells or lysates may run through a third protein.
Assays:
[1] = molecular target: T1, Full length mouse Neto1 (expressed in COS-7) (mouse) (UniProt Q8R4I7); experiment: co-IP; lysates of transfected COS-7 cells (RIPA buffer), immunoprecipitation with anti-Neto2 antibodies (Neto1 panel: Figure 3D), immunoblot
T1 sequence: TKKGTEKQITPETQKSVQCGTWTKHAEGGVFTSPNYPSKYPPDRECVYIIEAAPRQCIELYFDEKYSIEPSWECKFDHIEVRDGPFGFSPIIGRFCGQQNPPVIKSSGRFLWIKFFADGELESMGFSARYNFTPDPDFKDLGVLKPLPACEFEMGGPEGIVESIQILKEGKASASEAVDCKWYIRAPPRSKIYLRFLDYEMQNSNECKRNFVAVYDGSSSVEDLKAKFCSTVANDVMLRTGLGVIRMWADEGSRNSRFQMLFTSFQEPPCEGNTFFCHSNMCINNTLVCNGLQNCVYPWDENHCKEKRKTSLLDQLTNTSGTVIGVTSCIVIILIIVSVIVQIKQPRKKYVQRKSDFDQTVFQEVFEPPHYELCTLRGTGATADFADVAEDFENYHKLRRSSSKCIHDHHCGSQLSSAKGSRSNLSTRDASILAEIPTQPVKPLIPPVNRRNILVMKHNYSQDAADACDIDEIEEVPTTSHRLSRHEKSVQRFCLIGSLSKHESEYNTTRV

[2] = molecular target: T2, Full length mouse Neto2 (expressed in COS-7) (mouse) (UniProt Q8BNJ6); experiment: as above
T2 sequence: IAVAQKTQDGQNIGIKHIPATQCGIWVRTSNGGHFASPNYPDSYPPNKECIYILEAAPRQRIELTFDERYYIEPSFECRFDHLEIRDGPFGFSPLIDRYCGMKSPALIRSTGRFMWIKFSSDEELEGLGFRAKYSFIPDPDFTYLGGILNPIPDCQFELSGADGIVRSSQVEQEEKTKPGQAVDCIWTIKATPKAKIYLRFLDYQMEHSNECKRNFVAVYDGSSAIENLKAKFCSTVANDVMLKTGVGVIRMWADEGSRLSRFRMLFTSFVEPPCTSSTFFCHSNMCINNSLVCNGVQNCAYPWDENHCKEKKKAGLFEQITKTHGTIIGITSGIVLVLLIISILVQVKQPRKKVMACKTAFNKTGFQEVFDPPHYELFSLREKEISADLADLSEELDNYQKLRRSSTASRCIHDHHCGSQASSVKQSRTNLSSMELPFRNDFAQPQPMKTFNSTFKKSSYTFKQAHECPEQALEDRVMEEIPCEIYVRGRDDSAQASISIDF

[3] = molecular target: T3, Neto2 C-terminal truncation mutant (Neto2Δ7), lacking the last seven C-terminal residues (mouse) (UniProt Q8BNJ6); experiment: as above
T3 sequence: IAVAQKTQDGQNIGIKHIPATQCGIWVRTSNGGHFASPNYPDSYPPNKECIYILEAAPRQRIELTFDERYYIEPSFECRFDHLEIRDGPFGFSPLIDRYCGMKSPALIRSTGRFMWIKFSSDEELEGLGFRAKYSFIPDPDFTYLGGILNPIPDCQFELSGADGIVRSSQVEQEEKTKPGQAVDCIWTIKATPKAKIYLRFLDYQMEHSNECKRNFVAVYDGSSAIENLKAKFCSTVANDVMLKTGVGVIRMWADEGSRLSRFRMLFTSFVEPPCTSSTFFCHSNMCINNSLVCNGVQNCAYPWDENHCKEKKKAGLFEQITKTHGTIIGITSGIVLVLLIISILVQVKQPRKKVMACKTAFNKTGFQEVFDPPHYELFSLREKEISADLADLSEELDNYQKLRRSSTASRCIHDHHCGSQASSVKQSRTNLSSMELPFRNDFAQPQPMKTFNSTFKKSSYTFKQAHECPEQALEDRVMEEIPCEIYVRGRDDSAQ

[4] = molecular target: T4, GST fused to the Neto2 cytoplasmic domain deletion mutant ΔIDF (GST-Neto2(CDΔIDF)) (mouse) (UniProt Q8BNJ6); experiment: pull-down; GST fusion proteins on glutathione agarose beads incubated with COS-7 cell lysates overexpressing GRIP(PDZ4-7)-myc overnight at 4°C; washed with RIPA buffer minus SDS and DOC; immunoblot; only the target purified
T4 sequence: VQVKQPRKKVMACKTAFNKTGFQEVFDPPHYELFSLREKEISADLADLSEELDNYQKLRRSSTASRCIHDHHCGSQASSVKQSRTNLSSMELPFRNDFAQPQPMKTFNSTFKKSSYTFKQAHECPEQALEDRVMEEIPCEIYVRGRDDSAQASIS

[5] = molecular target: T5, GST fused to the cytoplasmic domain of Neto2 (GST-Neto2(CD)) (mouse) (UniProt Q8BNJ6); experiment: as above
T5 sequence: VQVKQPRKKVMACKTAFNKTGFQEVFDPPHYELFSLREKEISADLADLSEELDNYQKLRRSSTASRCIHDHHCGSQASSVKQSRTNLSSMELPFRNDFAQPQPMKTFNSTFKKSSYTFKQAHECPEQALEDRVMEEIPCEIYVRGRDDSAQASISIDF

[6] = molecular target: T6, Neto1 cytoplasmic domain (Neto1(CD), amino acids 345-533), two-hybrid bait (mouse) (UniProt Q8R4I7); experiment: two-hybrid; GAL4 DNA-binding domain fusions in pDBLeu, GAL4 activation domain fusions in pPC86, MaV203 cells; growth on -Trp/-Leu/-His and lacZ reporter (ß-galactosidase assay)
T6 sequence: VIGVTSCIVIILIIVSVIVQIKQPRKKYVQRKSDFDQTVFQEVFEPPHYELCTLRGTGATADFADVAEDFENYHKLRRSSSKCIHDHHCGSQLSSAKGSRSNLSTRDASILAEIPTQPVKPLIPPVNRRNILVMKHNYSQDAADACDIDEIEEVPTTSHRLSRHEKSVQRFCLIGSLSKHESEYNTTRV

[7] = molecular target: T7, Neto2 cytoplasmic domain (Neto2(CD), amino acids 368-525) fused to the GAL4 DNA-binding domain (mouse) (UniProt Q8BNJ6); experiment: as above
T7 sequence: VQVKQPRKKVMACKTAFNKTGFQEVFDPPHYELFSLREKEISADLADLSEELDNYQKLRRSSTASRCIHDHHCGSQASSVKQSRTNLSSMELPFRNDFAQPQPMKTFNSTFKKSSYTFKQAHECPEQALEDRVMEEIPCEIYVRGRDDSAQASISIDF

[8] = molecular target: T8, Neto2 cytoplasmic domain truncation mutant ΔIDF (Neto2(CD-ΔIDF), amino acids 368-522) fused to the GAL4 DNA-binding domain (mouse) (UniProt Q8BNJ6); experiment: as above
T8 sequence: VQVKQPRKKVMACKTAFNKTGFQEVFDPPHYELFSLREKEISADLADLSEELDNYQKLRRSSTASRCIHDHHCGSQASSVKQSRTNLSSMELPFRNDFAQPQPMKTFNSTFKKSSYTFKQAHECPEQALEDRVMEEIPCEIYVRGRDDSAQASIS

[9] = molecular target: GRIP (native, mouse brain) (mouse (endogenous in cerebellum and whole brain)); experiment: co-IP; mouse cerebellar membrane fractions, immunoprecipitation with an anti-GRIP antibody, normal rabbit IgG as negative control
[10] = molecular target: GRIP (native, mouse brain) (mouse (endogenous in cerebellum and whole brain)); experiment: co-IP; mouse whole brain membrane fractions, immunoprecipitation with an anti-GRIP antibody, normal rabbit IgG as negative control

“C-terminal myc-tagged GRIP(PDZ4-7) (mouse) (domain or fragment)” was tested, and the binding [1] was “no binding”, the binding [2] was “binds” and the binding [3] was “no binding”. The binding [4] was “no binding” and the binding [5] was “binds”.

“GRIP(PDZ4-7) fused to the GAL4 activation domain (mouse) (domain or fragment)” was tested, and the binding [6] was “no binding”, the binding [7] was “binds” and the binding [8] was “no binding”.

B1: Neto2 (native, mouse brain) (protein, UniProt Q8BNJ6 23-525)
chain: IAVAQKTQDGQNIGIKHIPATQCGIWVRTSNGGHFASPNYPDSYPPNKECIYILEAAPRQRIELTFDERYYIEPSFECRFDHLEIRDGPFGFSPLIDRYCGMKSPALIRSTGRFMWIKFSSDEELEGLGFRAKYSFIPDPDFTYLGGILNPIPDCQFELSGADGIVRSSQVEQEEKTKPGQAVDCIWTIKATPKAKIYLRFLDYQMEHSNECKRNFVAVYDGSSAIENLKAKFCSTVANDVMLKTGVGVIRMWADEGSRLSRFRMLFTSFVEPPCTSSTFFCHSNMCINNSLVCNGVQNCAYPWDENHCKEKKKAGLFEQITKTHGTIIGITSGIVLVLLIISILVQVKQPRKKVMACKTAFNKTGFQEVFDPPHYELFSLREKEISADLADLSEELDNYQKLRRSSTASRCIHDHHCGSQASSVKQSRTNLSSMELPFRNDFAQPQPMKTFNSTFKKSSYTFKQAHECPEQALEDRVMEEIPCEIYVRGRDDSAQASISIDF
B1 was tested, and the binding [9] was “binds” and the binding [10] was “binds”.

B2: Neto1 (native, mouse whole brain) (protein, UniProt Q8R4I7 23-533)
chain: TKKGTEKQITPETQKSVQCGTWTKHAEGGVFTSPNYPSKYPPDRECVYIIEAAPRQCIELYFDEKYSIEPSWECKFDHIEVRDGPFGFSPIIGRFCGQQNPPVIKSSGRFLWIKFFADGELESMGFSARYNFTPDPDFKDLGVLKPLPACEFEMGGPEGIVESIQILKEGKASASEAVDCKWYIRAPPRSKIYLRFLDYEMQNSNECKRNFVAVYDGSSSVEDLKAKFCSTVANDVMLRTGLGVIRMWADEGSRNSRFQMLFTSFQEPPCEGNTFFCHSNMCINNTLVCNGLQNCVYPWDENHCKEKRKTSLLDQLTNTSGTVIGVTSCIVIILIIVSVIVQIKQPRKKYVQRKSDFDQTVFQEVFEPPHYELCTLRGTGATADFADVAEDFENYHKLRRSSSKCIHDHHCGSQLSSAKGSRSNLSTRDASILAEIPTQPVKPLIPPVNRRNILVMKHNYSQDAADACDIDEIEEVPTTSHRLSRHEKSVQRFCLIGSLSKHESEYNTTRV
For B2, the binding [10] was “no binding”.
